# Molecular target: AaDOP2 (Aedes aegypti, UniProt H6D5H2)
# Sequences of proteins named here, by UniProt entry; tags and fusion partners are left off. Residues count along the entry.
# UniProt H6D5H2, 1-476: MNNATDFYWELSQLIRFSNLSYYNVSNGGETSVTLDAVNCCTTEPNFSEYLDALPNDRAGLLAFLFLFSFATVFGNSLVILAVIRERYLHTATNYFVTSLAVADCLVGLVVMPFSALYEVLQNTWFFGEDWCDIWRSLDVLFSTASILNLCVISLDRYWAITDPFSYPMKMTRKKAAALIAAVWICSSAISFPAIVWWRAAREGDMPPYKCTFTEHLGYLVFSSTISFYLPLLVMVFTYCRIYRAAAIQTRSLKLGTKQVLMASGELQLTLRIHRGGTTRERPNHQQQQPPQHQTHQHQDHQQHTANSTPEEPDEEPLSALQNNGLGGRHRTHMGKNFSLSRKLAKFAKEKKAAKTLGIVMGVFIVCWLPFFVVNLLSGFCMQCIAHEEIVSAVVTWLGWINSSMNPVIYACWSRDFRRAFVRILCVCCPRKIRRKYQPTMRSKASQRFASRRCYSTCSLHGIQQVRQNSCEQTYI
# Experiment: AaDOP2 antagonist screen of the LOPAC1280 library (HEK-CRELuc-Aadop2 cells, luminescence)
# Format: cell-based
compound,measurement,value
"COc1ccc(CC(C)NCC(O)c2ccc(O)c(NC=O)c2)cc1 (stereo not shown) [Compound 538, Formoterol]","Compound effect (percent receptor signaling in presence of test compound, relative lux units relative to the SCH23390 control)",91

# From publication PMC3265452 (PLoS Neglected Tropical Diseases, 2012)
